The subject of this data set is Skov-3 subcutaneous xenografts. In words: In vivo biodistribution and optimal time point FLI in subcutaneous Skov-3 xenograft model (IVIS Spectrum). Also on record: species or system NOD-scid IL2Rg^null mice. The following applies: iv injection, Skov-3 subcutaneous xenograft, n = 3 per conjugate, imaged 0.5 to 48 h. Here is the method: All applicable institutional and/or national guidelines for the care and use of animals were followed. All experiments were approved by The Norwegian Animal Research Authority and conducted according to The European Convention for the Protection of Vertebrates Used for Scientific Purposes (Application ID 14128). NOD-scid IL2Rg^null mice (referred to as NSG) were housed in groups of ≤ 5 in individually ventilated cages changed twice per month and kept in a 12-h […] schedule at 21 °C at the Vivarium, University of Bergen. Observations for general condition and body weights were recorded twice per week and, when indicated, the animals were euthanised according to institutional guidelines. Skov-3 and A549 subcutaneous xenografts were established through bi-lateral flank injections of 5 × 10^6 cells, resuspended in 100 μL PBS containing 16.7% Matrigel (Corning Inc., MA, USA). Tumour volumes were measured weekly with a digital calliper and calculated using the ellipsoid volume formula: Volume = π (length × width × height)/6.
For biodistribution assessment of conjugates 1–5, mice were intravenously (iv) injected with 100 μL of a 10-μM conjugate solution when mean tumour volumes reached ≈150 mm^3, corresponding to a dose of […]. The dose was chosen on the basis of preclinical mouse models previously performed using folate-NIR (OTL38) FLI [28]. To determine the timepoint for the optimal TBR, optical imaging was performed at 0 h, 0.5 h, 1 h, 2 h, 4 h, 6 h, 8 h, 24 h and 48 h using the IVIS Spectrum. Fluorescence signals were analysed with the Living Imaging® software v4.5 (PerkinElmer Inc.) and expressed as average radiance (p/s/cm^2/sr). Regions of interest (ROI) were manually drawn around the subcutaneous tumours in the flanks and the adjacent tissue to calculate TBRs at all time points. Next, subcutaneous xenograft models were imaged at the pre-determined optimal time points, which were 4 h for conjugates 1, 2 and 3 and 24 h for conjugates 4 and 5.
As for `CC1(C)C(/C=C/C2=C(Oc3ccc(CCC(=O)NCCNC(=O)CC[C@H](NC(=O)c4ccc(NCc5cnc6nc(N)[nH]c(=O)c6n5)cc4)C(=O)O)cc3)C(=C/C=C3/N(CCC[N+](C)(C)C)c4ccc(S(=O)(=O)O)cc4C3(C)C)/CCC2)=[N+](CCC[N+](C)(C)C)c2ccc(S(=O)(=O)O)cc21` [Conjugate 1, 2-((E)-2-((E)-2-(4-(3-((2-((S)-4-(4-(((2-amino-4-oxo-3,4-dihydropteridin-6-yl)methyl)amino)benzamido)-4-carboxybutanamido)ethyl)amino)-3-oxopropyl)phenoxy)-3-(2-((E)-3,3-dimethyl-5-sulfonato-1-(3-(trimethylammonio)propyl)indolin-2-ylidene)ethylidene)cyclohex-1-en-1-yl)vinyl)-3,3-dimethyl-1-(3-(trimethylammonio)propyl)-3H-indol-1-ium-5-sulfonate], the “optimal time point for achieving the best TBR” value (“optimal time point” for short) is 8 h.
As to `CC1(C)C(/C=C/C2=C(c3ccc(CCC(=O)NCCNC(=O)CC[C@H](NC(=O)c4ccc(NCc5cnc6nc(N)[nH]c(=O)c6n5)cc4)C(=O)O)cc3)C(=C/C=C3/N(CCC[N+](C)(C)C)c4ccc(S(=O)(=O)O)cc4C3(C)C)/CCC2)=[N+](CCC[N+](C)(C)C)c2ccc(S(=O)(=O)O)cc21` [Conjugate 2, 2-((E)-2-((E)-4'-(3-((2-((S)-4-(4-(((2-amino-4-oxo-3,4-dihydropteridin-6-yl)methyl)amino)benzamido)-4-carboxybutanamido)ethyl)amino)-3-oxopropyl)-6-(2-((E)-3,3-dimethyl-5-sulfonato-1-(3-(trimethylammonio)propyl)indolin-2-ylidene)ethylidene)-3,4,5,6-tetrahydro-[1,1'-biphenyl]-2-yl)vinyl)-3,3-dimethyl-1-(3-(trimethylammonio)propyl)-3H-indol-1-ium-5-sulfonate], the “optimal time point” value came to 8 h.
Consider `CC1(C)C(/C=C/C2=C(Oc3ccc(S(=O)(=O)O)cc3)C(=C/C=C3/N(CCCCS(=O)(=O)O)c4ccc(S(=O)(=O)[O-])cc4C3(C)C)/CCC2)=[N+](CCCCCC(=O)NCCNC(=O)CC[C@H](NC(=O)c2ccc(NCc3cnc4nc(N)[nH]c(=O)c4n3)cc2)C(=O)O)c2ccc(S(=O)(=O)O)cc21` [Conjugate 3, 1-(6-((2-((S)-4-(4-(((2-amino-4-oxo-3,4-dihydropteridin-6-yl)methyl)amino)benzamido)-4-carboxybutanamido)ethyl)amino)-6-oxohexyl)-2-((E)-2-((E)-3-(2-((E)-3,3-dimethyl-5-sulfonato-1-(4-sulfonatobutyl)indolin-2-ylidene)ethylidene)-2-(4-sulfonatophenoxy)cyclohex-1-en-1-yl)vinyl)-3,3-dimethyl-3H-indol-1-ium-5-sulfonate], for which the “optimal time point” value is given as 8 h.
Regarding `CC1(C)C(/C=C/C=C/C=C/C=C2\N(CCCCCC(=O)NCCNC(=O)CC[C@H](NC(=O)c3ccc(NCc4cnc5nc(N)[nH]c(=O)c5n4)cc3)C(=O)O)c3ccc4ccccc4c3C2(C)C)=[N+](CCCCS(=O)(=O)[O-])c2ccc3ccccc3c21` [Conjugate 4, 4-(2-((1E,3E,5E,7Z)-7-(3-(6-((2-((S)-4-(4-(((2-amino-4-oxo-3,4-dihydropteridin-6-yl)methyl)amino)benzamido)-4-carboxybutanamido)ethyl)amino)-6-oxohexyl)-1,1-dimethyl-1,3-dihydro-2H-benzo[e]indol-2-ylidene)hepta-1,3,5-trien-1-yl)-1,1-dimethyl-1H-benzo[e]indol-3-ium-3-yl)butane-1-sulfonate], the “optimal time point” value worked out at 0.5 h.
Turning to `C[N+]1=C(/C=C/C2=C(Cl)C(=C/C=C3/N(CCCCCC(=O)NCCNC(=O)CC[C@H](NC(=O)c4ccc(NCc5cnc6nc(N)[nH]c(=O)c6n5)cc4)C(=O)O)c4ccccc4C3(C)C)/CCC2)C(C)(C)c2ccccc21` [Conjugate 5, 2-((E)-2-((E)-3-(2-((E)-1-(6-((2-((S)-4-(4-(((2-amino-4-oxo-3,4-dihydropteridin-6-yl)methyl)amino)benzamido)-4-carboxybutanamido)ethyl)amino)-6-oxohexyl)-3,3-dimethylindolin-2-ylidene)ethylidene)-2-chlorocyclohex-1-en-1-yl)vinyl)-1,3,3-trimethyl-3H-indol-1-ium], the “optimal time point” value is listed as 24 h.

For the origin of these results see paper PMC9971101, “Comparison of Five Near-Infrared Fluorescent Folate Conjugates in an Ovarian Cancer Model” (Molecular Imaging and Biology, 2021).
